The supplement of paper PMC12889115
The other results are listed elsewhere or left out. These are raw signals, not scaled to a control.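 In the initial screen, polymyxin B was used at a concentration that permeabilizes Salmonella's outer membrane but not its inner membrane. Maximum growth was set by DMSO wells with or without polymyxin B. Since plates varied, data were ranked per plate, and compounds giving the lowest OD600 advanced as hits.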

Tested on: Salmonella enterica serovar Typhimurium SL1344
Experiment: bacterial growth OD600 after 18 h with compound and polymyxin B; higher = more bacterial growth (less inhibition)
Conditions: 50 µM, Mueller-Hinton broth

Row | Compound | bacterial growth OD600 (polymyxin B 1 µg/mL) | bacterial growth OD600 (polymyxin B 0.75 µg/mL)
1 | O=C(NCCN1CCOCC1)c1cc(COc2cccc(C(F)(F)F)c2)[nH]n1 | 1.18 | –
2 | O=C1CCC(CCC(=O)N2CCC(c3ccc(F)cc3)C2)(Cc2ccc3ccccc3c2)N1 (stereo not given) | – | 0.005
3 | COc1ccccc1C1CN(CCNC(=O)CCc2ccc3c(c2)OCO3)Cc2ccccc2O1 (stereo not given) | – | 0.019
4 | Cc1ccc(OCc2cc(C(=O)N(C)C3CCCCC3)no2)cc1C | 0.002 | –
5 | COc1cccc(CN2C(=O)NC(C)(C3CCN(C(=O)c4cccc(N(C)C)c4)CC3)C2=O)c1OC (stereo not given) | – | 0.84
6 | CCc1noc(C)c1C(=O)N1CCC(C2CCN(Cc3cccnc3)CC2)C1 (stereo not given) | – | 0.854
7 | COc1ccccc1C1(CC(=O)N2CCN(Cc3ccc4c(c3)OCO4)CC2)CC(=O)N(C)C1=O (stereo not given) | – | 0.826
8 | CC(Cc1ccccn1)NC1CCN(c2ccc(CC(=O)NCCc3cccc(F)c3)cc2)CC1 (stereo not given) | – | 0.852
9 | COCCN1CCN(C(=O)CC2(c3ccccc3)CC(=O)N(CCCOc3cccnc3)C2=O)CC1 (stereo not given) | – | 0.919
10 | CCc1n[nH]c(C(=O)N2CCCC(N3CCN(c4ccccc4C)CC3)C2)c1C (stereo not given) | 0.743 | –
11 | CO[C@H]1[C@H](NC(=O)c2cccs2)c2ccccc2C12CCN(Cc1c(F)ccc(F)c1F)CC2 | – | 0.683
12 | CCCNC(=O)NCc1cccnc1N(CC)CC | 1 | –
13 | COc1ccc(-c2cnnc(NCCc3ccccc3F)n2)c(OC)c1 | – | 0.009
14 | COCCCN1C(=O)CC(CC(=O)NCc2cccc(OC)c2OC)(c2ccccc2C)C1=O (stereo not given) | – | 0.832
15 | Cc1ccc(NC2CCCN(C(=O)C3CCC3)C2)cc1C (stereo not given) | 0.862 | –
16 | CN(C)c1ncccc1CNCc1cccc2cccnc12 | – | 0.946
17 | COc1ccc(CN2CCN(CCCn3cccn3)CC2CCO)c(F)c1 (stereo not given) | 0.811 | –
18 | O=C(NC1CCOCC1)c1csc2nc(-c3ccc(C(F)(F)F)cc3)cn12 | 1.04 | –
19 | Cc1ccccc1-n1ncc(C(C)NC(=O)c2ccsc2)c1C (stereo not given) | 0.926 | –
20 | COCCN(C)C(=O)C1CCN(c2nc(-c3ccccc3)nc3c2CCC3)CC1 | 0.816 | –

One compound at a time (already shown):
`COc1ccccc1C1CN(CCNC(=O)CCc2ccc3c(c2)OCO3)Cc2ccccc2O1` (stereo not given) in the list: bacterial growth OD600 (polymyxin B 0.75 µg/mL): 0.019
`COc1ccc(CN2CCN(CCCn3cccn3)CC2CCO)c(F)c1` (stereo not given) in the list: bacterial growth OD600 (polymyxin B 1 µg/mL): 0.811
